Data published in patent publication US20040162428A1, “6-(2,6-difluorophenyl)-triazolopyrimidines as fungicides” (priority 2001, published 2004).
Some of these results come from one statement about several compounds together.

These molecules were tested on Alternaria solani (assay: Fungicidal control of early blight on tomatoes (Alternaria solani), protective spray). Settings: tomato plants sprayed with 250 ppm, inoculated next day, assessed after 6 days at 20 to 23° C.; untreated plants infected to 90%.
Assay type: in vivo
With CC(C)Nc1c(-c2c(F)cccc2F)c(Cl)nc2ncnn12 [I-3, 5-chloro-6-(2,6-difluorophenyl)-7-isopropylamino-[1,2,4]-triazolo[1,5-α]pyrimidine] the “infection (extent of fungal attack on the leaves, % diseased leaf area)” value was “not more than 1%”. CC1CCN(c2c(-c3c(F)cccc3F)c(Cl)nc3ncnn23)CC1 [I-4, 5-chloro-6-(2,6-difluorophenyl)-7-(4-methylpiperidin-1-yl)-[1,2,4]-triazolo-[1,5-α]-pyrimidine] was tested, and the “infection (extent of fungal attack on the leaves, % diseased leaf area)” value was “not more than 1%”. CCN(CC)c1c(-c2c(F)cccc2F)c(Cl)nc2ncnn12 [I-6, 5-chloro-6-(2,6-difluorophenyl)-7-(diethylamino)-[1,2,4]-triazolo-[1,5-α]-pyrimidine] was tested, and the “infection (extent of fungal attack on the leaves, % diseased leaf area)” value was “not more than 1%”.
